For one molecule, binding results are on record in patent US20170226208A1 (SUPPREMOL, published 2017).

By UniProt entry, the sequences of proteins in these tests, tags left out. Residues count along the entry.
UniProt P31994, residues 43-310: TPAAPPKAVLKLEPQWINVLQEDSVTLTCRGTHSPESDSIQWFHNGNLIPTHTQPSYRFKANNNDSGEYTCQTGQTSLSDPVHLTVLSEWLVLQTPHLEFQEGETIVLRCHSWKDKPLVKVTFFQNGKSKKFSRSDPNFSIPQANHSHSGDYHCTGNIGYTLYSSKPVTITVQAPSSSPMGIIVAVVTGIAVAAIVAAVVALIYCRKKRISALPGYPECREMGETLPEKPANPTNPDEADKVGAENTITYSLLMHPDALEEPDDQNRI

No constants are given. Whether binding was seen depends on the method and setting. In cells and extracts the contact can be indirect. Some binding calls cover weakened binding; strength is not graded here.

The test deals with FcγRIIB precipitated from lysates of stimulated Daudi cells (human) (UniProt P31994). Put plainly: co-immunoprecipitation from Daudi cell lysates with 2B6, Western blot for phospho-SHIP-1. For orientation: In western blotting, separated proteins are transferred to a membrane and probed.

B1: SHIP-1 (enzyme, human, UniProt Q92835 1-1189, looked up)
chain: MVPCWNHGNITRSKAEELLSRTGKDGSFLVRASESISRAYALCVLYRNCVYTYRILPNEDDKFTVQASEGVSMRFFTKLDQLIEFYKKENMGLVTHLQYPVPLEEEDTGDDPEEDTVESVVSPPELPPRNIPLTASSCEAKEVPFSNENPRATETSRPSLSETLFQRLQSMDTSGLPEEHLKAIQDYLSTQLAQDSEFVKTGSSSLPHLKKLTTLLCKELYGEVIRTLPSLESLQRLFDQQLSPGLRPRPQVPGEANPINMVSKLSQLTSLLSSIEDKVKALLHEGPESPHRPSLIPPVTFEVKAESLGIPQKMQLKVDVESGKLIIKKSKDGSEDKFYSHKKILQLIKSQKFLNKLVILVETEKEKILRKEYVFADSKKREGFCQLLQQMKNKHSEQPEPDMITIFIGTWNMGNAPPPKKITSWFLSKGQGKTRDDSADYIPHDIYVIGTQEDPLSEKEWLEILKHSLQEITSVTFKTVAIHTLWNIRIVVLAKPEHENRISHICTDNVKTGIANTLGNKGAVGVSFMFNGTSLGFVNSHLTSGSEKKLRRNQNYMNILRFLALGDKKLSPFNITHRFTHLFWFGDLNYRVDLPTWEAETIIQKIKQQQYADLLSHDQLLTERREQKVFLHFEEEEITFAPTYRFERLTRDKYAYTKQKATGMKYNLPSWCDRVLWKSYPLVHVVCQSYGSTSDIMTSDHSPVFATFEAGVTSQFVSKNGPGTVDSQGQIEFLRCYATLKTKSQTKFYLEFHSSCLESFVKSQEGENEEGSEGELVVKFGETLPKLKPIISDPEYLLDQHILISIKSSDSDESYGEGCIALRLEATETQLPIYTPLTHHGELTGHFQGEIKLQTSQGKTREKLYDFVKTERDESSGPKTLKSLTSHDPMKQWEVTSRAPPCSGSSITEIINPNYMGVGPFGPPMPLHVKQTLSPDQQPTAWSYDQPPKDSPLGPCRGESPPTPPGQPPISPKKFLPSTANRGLPPRTQESRPSDLGKNAGDTLPQEDLPLTKPEMFENPLYGSLSSFPKPAPRKDQESPKMPRKEPPPCPEPGILSPSIVLTKAQEADRGEGPGKQVPAPRLRSFTCSSSAEGRAAGGDKSQGKPKTPVSSQAPVPAKRPIKPSRSEINQQTPPTPTPRPPLPVKSPAVLHLQHSKGRDYRDNTELPHHGKHRPEEGPPGPLGRTAMQ
modifications: phosphorylated (phospho-SHIP-1)
With B1, the binding result is given as “binds”.
